Assay results taken from patent US20230073777A1, “CYCLIC-AMP RESPONSE ELEMENT BINDING PROTEIN (CBP) AND/OR ADENOVIRAL E1A BINDING PROTEIN OF 300 KDA (P300) DEGRADATION COMPOUNDS AND METHODS OF USE” (CULLGEN (SHANGHAI), INC., priority 2019, published 2023).
Some of these results come from one statement about several compounds together.

Sequences of proteins named here, by UniProt entry; tags and fusion partners are left off.
UniProt Q09472, whole entry: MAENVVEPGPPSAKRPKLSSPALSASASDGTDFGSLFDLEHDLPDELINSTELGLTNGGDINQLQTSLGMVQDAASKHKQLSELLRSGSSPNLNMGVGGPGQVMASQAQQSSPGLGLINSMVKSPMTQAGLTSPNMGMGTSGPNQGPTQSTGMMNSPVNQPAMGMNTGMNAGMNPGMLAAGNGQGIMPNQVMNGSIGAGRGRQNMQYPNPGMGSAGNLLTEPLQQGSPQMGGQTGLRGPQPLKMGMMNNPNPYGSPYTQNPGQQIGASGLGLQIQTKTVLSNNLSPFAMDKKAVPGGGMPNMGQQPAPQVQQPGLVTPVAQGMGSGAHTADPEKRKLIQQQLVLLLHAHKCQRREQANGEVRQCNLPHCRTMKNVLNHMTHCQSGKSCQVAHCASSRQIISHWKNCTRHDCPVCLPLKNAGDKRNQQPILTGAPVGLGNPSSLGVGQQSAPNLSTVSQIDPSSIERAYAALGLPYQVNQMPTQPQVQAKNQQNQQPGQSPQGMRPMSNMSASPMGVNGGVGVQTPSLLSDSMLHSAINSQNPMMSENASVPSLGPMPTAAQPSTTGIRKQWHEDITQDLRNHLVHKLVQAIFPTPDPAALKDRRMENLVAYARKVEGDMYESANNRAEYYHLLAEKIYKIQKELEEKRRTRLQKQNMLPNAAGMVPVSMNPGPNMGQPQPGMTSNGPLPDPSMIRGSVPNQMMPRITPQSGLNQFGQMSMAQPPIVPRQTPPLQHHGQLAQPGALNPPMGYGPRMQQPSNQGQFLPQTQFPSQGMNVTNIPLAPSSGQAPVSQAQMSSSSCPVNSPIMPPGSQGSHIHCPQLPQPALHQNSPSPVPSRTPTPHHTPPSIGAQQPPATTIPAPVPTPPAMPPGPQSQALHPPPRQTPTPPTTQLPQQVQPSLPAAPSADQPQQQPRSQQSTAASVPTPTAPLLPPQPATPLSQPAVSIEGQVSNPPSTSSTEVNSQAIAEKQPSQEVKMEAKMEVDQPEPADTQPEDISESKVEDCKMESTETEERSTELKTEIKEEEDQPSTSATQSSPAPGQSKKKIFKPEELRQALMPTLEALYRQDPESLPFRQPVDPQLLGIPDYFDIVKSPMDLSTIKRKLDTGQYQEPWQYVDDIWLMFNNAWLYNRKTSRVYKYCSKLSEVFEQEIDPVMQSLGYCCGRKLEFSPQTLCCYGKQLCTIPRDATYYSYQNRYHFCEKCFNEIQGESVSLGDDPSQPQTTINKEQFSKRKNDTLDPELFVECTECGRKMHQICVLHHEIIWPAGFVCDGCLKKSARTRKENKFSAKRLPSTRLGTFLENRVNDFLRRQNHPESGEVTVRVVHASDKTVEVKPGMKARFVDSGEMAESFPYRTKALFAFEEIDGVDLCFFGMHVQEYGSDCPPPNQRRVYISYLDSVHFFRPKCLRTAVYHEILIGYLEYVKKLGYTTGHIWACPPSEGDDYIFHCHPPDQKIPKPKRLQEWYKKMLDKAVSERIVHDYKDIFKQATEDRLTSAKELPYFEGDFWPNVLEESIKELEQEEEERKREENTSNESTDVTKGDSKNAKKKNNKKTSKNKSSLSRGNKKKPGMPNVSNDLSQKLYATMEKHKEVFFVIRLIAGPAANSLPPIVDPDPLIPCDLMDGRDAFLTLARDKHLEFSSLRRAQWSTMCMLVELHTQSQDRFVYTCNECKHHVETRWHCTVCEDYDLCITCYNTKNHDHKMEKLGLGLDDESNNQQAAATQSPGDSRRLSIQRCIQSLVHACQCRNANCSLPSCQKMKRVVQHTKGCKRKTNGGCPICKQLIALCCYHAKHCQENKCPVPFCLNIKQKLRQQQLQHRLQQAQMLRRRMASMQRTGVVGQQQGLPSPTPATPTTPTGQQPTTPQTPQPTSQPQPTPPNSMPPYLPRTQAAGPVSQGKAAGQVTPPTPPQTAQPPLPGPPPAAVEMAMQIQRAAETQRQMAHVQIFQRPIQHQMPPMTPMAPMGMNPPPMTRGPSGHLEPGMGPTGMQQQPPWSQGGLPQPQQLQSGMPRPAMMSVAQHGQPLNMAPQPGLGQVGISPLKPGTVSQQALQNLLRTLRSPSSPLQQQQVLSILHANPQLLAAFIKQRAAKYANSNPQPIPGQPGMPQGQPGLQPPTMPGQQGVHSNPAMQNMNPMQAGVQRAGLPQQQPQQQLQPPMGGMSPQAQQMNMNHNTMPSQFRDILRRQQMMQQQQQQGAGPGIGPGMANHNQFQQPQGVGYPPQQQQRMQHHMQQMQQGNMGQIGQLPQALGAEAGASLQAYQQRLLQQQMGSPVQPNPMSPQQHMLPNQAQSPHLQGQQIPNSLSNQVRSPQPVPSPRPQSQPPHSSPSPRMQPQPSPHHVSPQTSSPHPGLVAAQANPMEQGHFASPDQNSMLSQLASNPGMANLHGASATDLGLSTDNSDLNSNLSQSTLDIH

The molecules below were run against P300 (Homo sapiens, UniProt Q09472) (assay: Immunoblotting of P300 protein levels in LNCaP or 22RV1 cells). Settings: LNCaP cells, 20 nM, immunoblotting (FIG. 3).
Format: cell-based
Design: LNCaP or 22RV1 cells that express CBP/P300 proteins were treated with GNE-781 or the bivalent compounds; endogenous in cells; host or cells: LNCaP (clone FGC) or 22RV1 cells
Experimental: Specific exemplary bivalent compounds were characterized in LNCaP or 22RV1 cells. LNCaP or 22RV1 cells that express CBP/P300 proteins were treated with GNE-781 or the bivalent compounds disclosed herein (P-001 to P-174) for indicated hours. Cells were collected, lysed and subject to immunoblotting using an antibody specific to P300 or CBP proteins. Tubulin or vinculin was included as the loading control. DMSO was used as the negative control.
Cultured cells or tissue chunks were washed with cold PBS once and lysed in cold RIPA buffer supplemented with protease inhibitors and phosphatase inhibitors (Beyotime Biotechnology). The solutions were then incubated at 4° C. for 30 minutes with gentle agitation to fully lyse cells. Cell lysates were centrifuged at 13,000 rpm for 10 minutes at 4° C. and pellets were discarded. Total protein concentrations in the lysates were determined by BCA assays (Beyotime Biotechnology). Cell lysates were mixed with Laemmli loading buffer to 1× and heated at 99° C. for 5 min. Proteins were resolved on SDS-PAGE and visualized by chemiluminescence. Images were taken by a ChemiDoc MP Imaging system (Bio-Rad). Protein bands were quantitated using the accompanied software provided by Bio-Rad.

Time at which significant degradation of P300 was detected, ≤ 2 h:
CNC(=O)N1CCc2c(c(N3CCCc4cc(-c5cnn(C)c5)c(C(F)F)cc43)nn2C2CCN(C(=O)CCCCNc3ccc4c(c3)C(=O)N(C3CCC(=O)NC3=O)C4=O)CC2)C1 (stereo not shown) [P-004, 3-(7-(difluoromethyl)-6-(1-methyl-1H-pyrazol-4-yl)-3,4-dihydroquinolin-1(2H)-yl)-1-(1-(5-((2-(2,6-dioxopiperidin-3-yl)-1,3-dioxoisoindolin-5-yl)amino)pentanoyl)piperidin-4-yl)-N-methyl-1,4,6,7-tetrahydro-5H-pyrazolo[4,3-c]pyridine-5-carboxamide]
CNC(=O)N1CCc2c(c(N3CCCc4cc(-c5cnn(C)c5)c(C(F)F)cc43)nn2C2CCN(C(=O)CCCCCNc3ccc4c(c3)C(=O)N(C3CCC(=O)NC3=O)C4=O)CC2)C1 (stereo not shown) [P-005, 3-(7-(difluoromethyl)-6-(1-methyl-1H-pyrazol-4-yl)-3,4-dihydroquinolin-1(2H)-yl)-1-(1-(6-((2-(2,6-dioxopiperidin-3-yl)-1,3-dioxoisoindolin-5-yl)amino)hexanoyl)piperidin-4-yl)-N-methyl-1,4,6,7-tetrahydro-5H-pyrazolo[4,3-c]pyridine-5-carboxamide]
CNC(=O)N1CCc2c(c(N3CCCc4cc(-c5cnn(C)c5)c(C(F)F)cc43)nn2C2CCN(C(=O)CCCNc3cccc4c3C(=O)N(C3CCC(=O)NC3=O)C4=O)CC2)C1 (stereo not shown) [P-015, 3-(7-(difluoromethyl)-6-(1-methyl-1H-pyrazol-4-yl)-3,4-dihydroquinolin-1(2H)-yl)-1-(1-(4-((2-(2,6-dioxopiperidin-3-yl)-1,3-dioxoisoindolin-4-yl)amino)butanoyl)piperidin-4-yl)-N-methyl-1,4,6,7-tetrahydro-5H-pyrazolo[4,3-c]pyridine-5-carboxamide]
CNC(=O)N1CCc2c(c(N3CCCc4cc(-c5cnn(CC(=O)NCCCCCCNc6ccc7c(c6)C(=O)N(C6CCC(=O)NC6=O)C7=O)c5)c(C(F)F)cc43)nn2C2CCOCC2)C1 (stereo not shown) [P-020]
